Measurements from patent publication US20140275511A1, “PURIFICATION OF […]” (priority 2013, published 2014).
At least one compound was matched to its structure with a doubt left.

## C[C@@H]([C@H](N)C(=O)N[C@H](C(=O)O)[C@H]1O[C@@H](n2ccc(=O)[nH]c2=O)[C@H](O)[C@@H]1O)[C@H](O)c1ccc(O)cn1 [Nikkomycin Z]
  pH at which the product is unstable: < 6
  pH range in which the product is most stable: 3-4
